These are yes or no findings as the source states them, for the method shown. Some results given as binding are weak or reduced against the parent protein; the word gives no strength.
Experiments:
[1] = target: T1, IgG Fc binding protein (FCGBP), endogenous in human gastric mucosa (human (endogenous in gastric mucosa)), Q9Y6R7; experiment: SEC, then co-migration in agarose gel electrophoresis with Western blot; human gastric corpus extract (MC-383) on Superdex 75 HL; high-molecular-mass fractions B7-B10 on 1% AgGE (0.1% SDS), blots for TFF1 and FCGBP; conditions: remark: other sources report otherwise
[2] = target: T1, IgG Fc binding protein (FCGBP), …; experiment: anion-exchange chromatography (co-elution), then agarose gel electrophoresis with Western blot; human gastric corpus E1-extract (MC-577); Resource Q6 column, salt gradient; fractions B3-C4 on 1% AgGE, blots for FCGBP and TFF1; conditions: remark: other sources report otherwise
[3] = target: TFF1 (Trefoil Factor Family peptide 1), endogenous in human gastric mucosa (human (endogenous in gastric mucosa)) (UniProt P04155); experiment: SEC, then non-reducing SDS-PAGE with Western blot and release by reduction; human gastric corpus extract (MC-383, aqueous buffer 30 mM NaCl, 20 mM Tris-HCl pH 7.0) on Superdex 75 HL; fractions on non-reducing 15% SDS-PAGE, anti-TFF1 blot; bands eluted and run under reducing conditions
[4] = target: T2, gastrokine 2 (GKN2), endogenous in human gastric mucosa (human (endogenous in gastric mucosa)) (UniProt Q86XP6); experiment: as above
T2 sequence: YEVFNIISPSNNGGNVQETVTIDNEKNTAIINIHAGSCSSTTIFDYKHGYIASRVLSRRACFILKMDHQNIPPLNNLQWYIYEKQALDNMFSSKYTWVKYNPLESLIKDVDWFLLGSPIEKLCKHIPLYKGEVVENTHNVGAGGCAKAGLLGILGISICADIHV

[5] = target: TFF1 (Trefoil Factor Family peptide 1), endogenous in human gastric mucosa (human (endogenous in gastric mucosa)) (UniProt P04155); experiment: SEC, then non-reducing versus reducing SDS-PAGE with Western blot; human gastric corpus extract (MC-577) after TRIzol extraction, pellet dissolved in 1% SDS; Superdex 75 HL; fractions analysed under reducing or non-reducing conditions for TFF1 and GKN2; bands eluted and reduced
[6] = target: T2, gastrokine 2 (GKN2), endogenous in human gastric mucosa (human (endogenous in gastric mucosa)); experiment: as above
[7] = target: T2, gastrokine 2 (GKN2), endogenous in human gastric mucosa (human (endogenous in gastric mucosa)); experiment: anion-exchange chromatography, then non-reducing SDS-PAGE with Western blot and LC-ESI-MS/MS of bands; human gastric corpus extract (MC-577) after TRIzol extraction; Resource Q6 column, salt gradient, 20 mM Tris-HCl pH 7.0; non-reducing 15% SDS-PAGE, anti-TFF1 blot; bands excised and digested with trypsin

Measured: binding

B1: TFF1 (Trefoil Factor Family peptide 1), endogenous in human gastric mucosa, P04155 25-84 (protein)
chain: EAQTETCTVAPRERQNCGFPGVTPSQCANKGCCFDDTVRGVPWCFYPNTIDVPPEEECEF
binds: [1] | [2]

B2: TFF1 (Trefoil Factor Family peptide 1), endogenous in human gastric mucosa (protein, UniProt P04155 25-84)
chain: B1 chain
not listed: [1] | [2]
binds: all other assays above
